Assay results published in the supplement of paper PMC12067093, “Discovery and optimisation of a covalent ligand for TRIM25 and its application to targeted protein ubiquitination” (Chemical Science, 2025).
Some of the results follow.

Amino acid sequences for entries named in this document (tags omitted). A change or cut given only in a name is not applied to a line headed by its entry.
UniProt O15031: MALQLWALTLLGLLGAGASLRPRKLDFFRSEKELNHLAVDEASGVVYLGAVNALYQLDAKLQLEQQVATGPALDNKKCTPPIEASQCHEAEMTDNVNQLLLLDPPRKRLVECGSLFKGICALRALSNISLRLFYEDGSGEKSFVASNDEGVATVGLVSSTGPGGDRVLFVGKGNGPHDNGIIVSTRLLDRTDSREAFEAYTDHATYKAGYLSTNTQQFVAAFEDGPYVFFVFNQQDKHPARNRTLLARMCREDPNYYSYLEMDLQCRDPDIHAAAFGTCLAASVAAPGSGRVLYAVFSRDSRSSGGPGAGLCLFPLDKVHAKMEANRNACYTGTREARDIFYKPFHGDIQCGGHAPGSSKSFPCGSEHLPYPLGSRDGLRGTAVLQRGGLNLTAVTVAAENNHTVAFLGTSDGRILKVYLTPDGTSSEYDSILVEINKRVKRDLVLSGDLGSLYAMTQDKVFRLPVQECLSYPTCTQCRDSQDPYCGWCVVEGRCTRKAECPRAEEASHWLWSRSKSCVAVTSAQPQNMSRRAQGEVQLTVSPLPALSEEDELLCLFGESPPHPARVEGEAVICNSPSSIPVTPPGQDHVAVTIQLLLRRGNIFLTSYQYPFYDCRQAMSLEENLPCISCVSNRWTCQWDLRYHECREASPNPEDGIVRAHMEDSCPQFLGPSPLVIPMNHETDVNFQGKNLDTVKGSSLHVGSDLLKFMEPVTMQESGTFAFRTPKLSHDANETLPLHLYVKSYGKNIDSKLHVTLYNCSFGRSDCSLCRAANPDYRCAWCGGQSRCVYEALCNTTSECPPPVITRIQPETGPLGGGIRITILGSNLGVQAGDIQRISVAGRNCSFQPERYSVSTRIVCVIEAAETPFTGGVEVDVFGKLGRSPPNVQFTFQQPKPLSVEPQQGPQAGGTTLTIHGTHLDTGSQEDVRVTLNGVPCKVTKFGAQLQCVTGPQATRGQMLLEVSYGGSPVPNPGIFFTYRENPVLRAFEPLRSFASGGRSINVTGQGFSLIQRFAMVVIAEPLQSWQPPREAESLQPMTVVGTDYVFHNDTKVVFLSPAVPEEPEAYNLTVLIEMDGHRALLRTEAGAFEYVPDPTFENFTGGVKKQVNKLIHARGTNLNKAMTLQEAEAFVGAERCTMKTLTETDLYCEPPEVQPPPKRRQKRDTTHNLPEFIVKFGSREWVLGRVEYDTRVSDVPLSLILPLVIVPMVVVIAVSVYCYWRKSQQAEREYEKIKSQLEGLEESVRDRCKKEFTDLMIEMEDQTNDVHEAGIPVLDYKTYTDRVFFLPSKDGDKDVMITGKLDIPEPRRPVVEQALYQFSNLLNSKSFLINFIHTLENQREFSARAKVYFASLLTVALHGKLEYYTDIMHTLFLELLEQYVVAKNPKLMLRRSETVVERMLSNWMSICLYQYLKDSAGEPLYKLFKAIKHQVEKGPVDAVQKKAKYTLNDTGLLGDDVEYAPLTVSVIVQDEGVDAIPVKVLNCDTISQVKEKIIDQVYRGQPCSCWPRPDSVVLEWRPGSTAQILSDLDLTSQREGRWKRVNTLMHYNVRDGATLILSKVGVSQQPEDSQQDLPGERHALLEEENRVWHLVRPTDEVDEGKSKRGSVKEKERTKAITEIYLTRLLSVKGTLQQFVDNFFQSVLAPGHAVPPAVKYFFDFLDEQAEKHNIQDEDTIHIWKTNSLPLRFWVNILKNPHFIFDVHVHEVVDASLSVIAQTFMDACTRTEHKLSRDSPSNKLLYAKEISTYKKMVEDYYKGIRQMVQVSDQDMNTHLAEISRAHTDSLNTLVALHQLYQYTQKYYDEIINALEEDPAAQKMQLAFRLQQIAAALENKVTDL
UniProt Q00722, whole entry, looked up: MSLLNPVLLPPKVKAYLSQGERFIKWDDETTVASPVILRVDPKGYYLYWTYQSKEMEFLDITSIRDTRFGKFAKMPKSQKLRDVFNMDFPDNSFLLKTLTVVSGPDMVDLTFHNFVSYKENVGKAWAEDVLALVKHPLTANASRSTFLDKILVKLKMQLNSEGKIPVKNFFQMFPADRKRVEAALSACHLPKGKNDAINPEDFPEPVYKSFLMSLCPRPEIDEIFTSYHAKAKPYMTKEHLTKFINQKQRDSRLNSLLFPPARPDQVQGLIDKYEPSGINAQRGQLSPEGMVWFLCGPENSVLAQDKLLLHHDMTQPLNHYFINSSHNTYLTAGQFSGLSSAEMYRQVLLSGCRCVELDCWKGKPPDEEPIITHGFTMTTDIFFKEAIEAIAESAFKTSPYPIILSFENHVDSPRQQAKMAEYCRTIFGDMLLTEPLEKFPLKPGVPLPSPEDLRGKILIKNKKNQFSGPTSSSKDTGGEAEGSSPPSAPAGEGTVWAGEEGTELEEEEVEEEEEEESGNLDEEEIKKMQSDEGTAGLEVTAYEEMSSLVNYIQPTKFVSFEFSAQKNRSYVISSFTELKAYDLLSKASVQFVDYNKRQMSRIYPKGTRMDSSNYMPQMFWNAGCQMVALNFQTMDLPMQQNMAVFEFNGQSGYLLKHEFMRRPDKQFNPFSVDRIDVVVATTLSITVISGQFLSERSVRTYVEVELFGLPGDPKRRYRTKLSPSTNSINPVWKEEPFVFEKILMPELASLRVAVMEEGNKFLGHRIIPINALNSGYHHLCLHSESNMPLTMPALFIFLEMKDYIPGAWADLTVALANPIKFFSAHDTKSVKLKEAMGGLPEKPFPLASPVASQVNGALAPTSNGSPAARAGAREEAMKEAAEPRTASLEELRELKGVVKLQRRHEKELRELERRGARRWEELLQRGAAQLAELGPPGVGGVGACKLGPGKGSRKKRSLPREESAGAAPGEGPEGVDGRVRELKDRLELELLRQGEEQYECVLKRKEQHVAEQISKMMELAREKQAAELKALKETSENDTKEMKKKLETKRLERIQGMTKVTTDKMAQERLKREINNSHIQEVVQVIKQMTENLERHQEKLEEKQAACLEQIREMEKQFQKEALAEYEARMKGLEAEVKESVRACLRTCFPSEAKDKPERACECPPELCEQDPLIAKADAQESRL
UniProt Q96CS7: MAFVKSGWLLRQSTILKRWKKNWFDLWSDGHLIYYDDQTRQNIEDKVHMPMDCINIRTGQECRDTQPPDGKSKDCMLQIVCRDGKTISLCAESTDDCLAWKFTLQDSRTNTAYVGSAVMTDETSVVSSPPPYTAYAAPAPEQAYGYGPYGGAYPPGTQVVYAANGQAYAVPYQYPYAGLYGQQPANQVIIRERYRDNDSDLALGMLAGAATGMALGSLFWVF
UniProt P14618, whole entry, looked up: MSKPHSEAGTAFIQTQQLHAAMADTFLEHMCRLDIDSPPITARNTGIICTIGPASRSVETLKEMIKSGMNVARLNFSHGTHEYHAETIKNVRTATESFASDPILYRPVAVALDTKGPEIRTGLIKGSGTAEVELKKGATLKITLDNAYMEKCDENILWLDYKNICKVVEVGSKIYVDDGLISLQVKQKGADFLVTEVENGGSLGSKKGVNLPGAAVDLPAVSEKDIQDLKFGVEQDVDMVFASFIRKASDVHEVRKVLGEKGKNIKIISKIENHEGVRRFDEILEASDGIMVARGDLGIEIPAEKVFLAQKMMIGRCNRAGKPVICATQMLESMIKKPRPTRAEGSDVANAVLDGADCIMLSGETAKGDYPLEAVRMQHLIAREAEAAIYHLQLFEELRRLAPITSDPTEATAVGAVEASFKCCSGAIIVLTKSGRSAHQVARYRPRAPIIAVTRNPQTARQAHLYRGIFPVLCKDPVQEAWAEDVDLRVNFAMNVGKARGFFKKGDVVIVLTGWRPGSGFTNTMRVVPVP
UniProt Q99570, whole entry, looked up: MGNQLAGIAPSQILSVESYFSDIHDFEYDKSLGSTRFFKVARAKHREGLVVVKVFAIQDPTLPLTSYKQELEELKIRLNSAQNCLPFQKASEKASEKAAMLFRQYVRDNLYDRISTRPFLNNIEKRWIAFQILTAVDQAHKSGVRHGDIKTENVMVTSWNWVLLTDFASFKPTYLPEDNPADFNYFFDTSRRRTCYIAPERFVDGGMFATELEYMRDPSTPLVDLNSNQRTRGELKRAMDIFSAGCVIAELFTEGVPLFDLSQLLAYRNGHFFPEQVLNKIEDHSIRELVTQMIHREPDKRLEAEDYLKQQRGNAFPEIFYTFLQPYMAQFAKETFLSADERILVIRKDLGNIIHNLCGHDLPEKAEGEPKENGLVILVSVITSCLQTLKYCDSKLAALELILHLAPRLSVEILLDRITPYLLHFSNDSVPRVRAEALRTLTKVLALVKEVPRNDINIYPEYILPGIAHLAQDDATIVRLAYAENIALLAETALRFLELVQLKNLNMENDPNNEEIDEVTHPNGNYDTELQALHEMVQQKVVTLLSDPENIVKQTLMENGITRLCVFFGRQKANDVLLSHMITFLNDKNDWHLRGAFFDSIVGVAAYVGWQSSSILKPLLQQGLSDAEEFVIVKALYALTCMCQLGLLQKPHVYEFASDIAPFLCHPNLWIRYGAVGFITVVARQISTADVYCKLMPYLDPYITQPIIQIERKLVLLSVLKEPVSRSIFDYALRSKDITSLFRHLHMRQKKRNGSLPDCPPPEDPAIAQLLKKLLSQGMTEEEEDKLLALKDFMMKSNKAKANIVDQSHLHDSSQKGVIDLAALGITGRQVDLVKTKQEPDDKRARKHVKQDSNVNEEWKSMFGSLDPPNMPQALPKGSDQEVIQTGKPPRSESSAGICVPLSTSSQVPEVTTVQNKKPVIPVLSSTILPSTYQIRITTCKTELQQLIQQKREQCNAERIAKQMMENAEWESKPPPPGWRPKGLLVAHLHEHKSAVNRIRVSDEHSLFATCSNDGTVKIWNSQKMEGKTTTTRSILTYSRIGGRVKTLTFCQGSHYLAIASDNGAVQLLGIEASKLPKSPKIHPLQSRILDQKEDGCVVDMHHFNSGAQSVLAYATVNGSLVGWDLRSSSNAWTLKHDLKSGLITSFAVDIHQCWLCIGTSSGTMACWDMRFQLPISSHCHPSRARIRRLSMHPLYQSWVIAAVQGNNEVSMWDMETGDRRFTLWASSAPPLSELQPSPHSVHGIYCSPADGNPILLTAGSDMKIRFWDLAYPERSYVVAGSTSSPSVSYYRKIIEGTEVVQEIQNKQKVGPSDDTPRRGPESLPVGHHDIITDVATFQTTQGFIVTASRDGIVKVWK
UniProt Q96S99: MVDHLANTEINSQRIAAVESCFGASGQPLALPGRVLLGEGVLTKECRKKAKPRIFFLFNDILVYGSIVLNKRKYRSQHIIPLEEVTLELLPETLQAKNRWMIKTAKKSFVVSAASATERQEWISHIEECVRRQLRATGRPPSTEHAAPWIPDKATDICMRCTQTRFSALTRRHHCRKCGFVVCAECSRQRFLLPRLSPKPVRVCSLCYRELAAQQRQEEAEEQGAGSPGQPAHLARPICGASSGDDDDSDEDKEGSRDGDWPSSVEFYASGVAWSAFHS
UniProt Q9NRX1: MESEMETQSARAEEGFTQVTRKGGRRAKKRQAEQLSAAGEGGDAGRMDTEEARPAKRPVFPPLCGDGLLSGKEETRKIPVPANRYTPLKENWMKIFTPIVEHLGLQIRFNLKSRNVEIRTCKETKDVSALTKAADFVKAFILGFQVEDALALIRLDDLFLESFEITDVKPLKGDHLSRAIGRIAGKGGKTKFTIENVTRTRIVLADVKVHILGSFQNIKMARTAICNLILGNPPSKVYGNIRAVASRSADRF
UniProt P29590: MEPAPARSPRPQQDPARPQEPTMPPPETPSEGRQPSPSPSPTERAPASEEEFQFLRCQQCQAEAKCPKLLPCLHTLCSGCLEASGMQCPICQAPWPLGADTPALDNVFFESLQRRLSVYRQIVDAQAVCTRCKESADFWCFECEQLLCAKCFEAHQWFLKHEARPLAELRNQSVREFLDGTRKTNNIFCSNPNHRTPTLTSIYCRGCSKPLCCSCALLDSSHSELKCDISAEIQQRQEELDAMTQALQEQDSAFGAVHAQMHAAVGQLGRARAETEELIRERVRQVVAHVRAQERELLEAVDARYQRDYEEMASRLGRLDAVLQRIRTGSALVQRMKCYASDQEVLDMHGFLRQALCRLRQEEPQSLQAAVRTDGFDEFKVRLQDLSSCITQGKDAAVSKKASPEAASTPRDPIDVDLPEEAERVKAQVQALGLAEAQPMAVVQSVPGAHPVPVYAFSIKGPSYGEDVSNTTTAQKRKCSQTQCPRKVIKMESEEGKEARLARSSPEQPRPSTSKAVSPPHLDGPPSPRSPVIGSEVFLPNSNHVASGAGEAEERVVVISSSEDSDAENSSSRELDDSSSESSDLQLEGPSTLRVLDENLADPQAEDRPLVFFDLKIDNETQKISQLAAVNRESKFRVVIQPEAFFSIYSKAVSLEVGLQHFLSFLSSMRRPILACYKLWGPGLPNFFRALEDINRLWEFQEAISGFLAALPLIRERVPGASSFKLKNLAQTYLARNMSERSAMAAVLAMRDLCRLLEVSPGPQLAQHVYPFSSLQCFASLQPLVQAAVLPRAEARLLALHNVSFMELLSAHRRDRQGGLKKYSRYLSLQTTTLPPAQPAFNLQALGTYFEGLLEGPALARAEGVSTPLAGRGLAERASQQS

Compound: Cc1cc(ccc1-c1ccccc1)C(=O)N1CCCN(CC1)C(=O)CCl [compound 10]
Test: probe-labelled cysteine peptide fold change vs DMSO (competition) (log2 fold change); higher = less target engagement (more negative = stronger competition)
Details: THP-1, incubation time: 4 h
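Also: competitive profiling in live THP-1 cells: cysteine peptides tagged with an iodoacetamide desthiobiotin (IA-DTB) probe, intensity after compound treatment relative to DMSO-treated cells.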

Target | probe-labelled cysteine peptide fold change (10 µM) | probe-labelled cysteine peptide fold change (50 µM)
PLCB3_Q01970_1176_LLAQLAQECQEQR (UniProt Q01970) | 0.3 | 0.18
PLXNB2_O15031_486_DSQDPYCGWCVVEGR (UniProt O15031) | -0.094 | 0.024
PLCB2_Q00722_1108_QAACLEQIR (UniProt Q00722) | 0.455 | 0.209
PLEKHB2_Q96CS7_75_DCMLQIVCR (UniProt Q96CS7) | -0.0309 | -0.0334
PKM_P14618-2_423_CLAAALIVLTESGR (UniProt P14618) | 0.128 | 0.0978
PMS1_P54277_243_CDADHSFTSLSTPER (UniProt P54277) | 0.0112 | -0.176
PIK3R4_Q99570_358_DLGNIIHNLCGHDLPEK (UniProt Q99570) | 0.0667 | 0.145
PMPCA_Q10713_142_HGGICDCQTSR (UniProt Q10713) | 0.179 | 0.242
PLEC_Q15149_3295_VPLDVACAR (UniProt Q15149) | -0.295 | -0.415
PLEKHF1_Q96S99_129_QEWISHIEECVR (UniProt Q96S99) | 0.271 | 0.463
PLEC_Q15149_992_VLSSSGSEAAVPSVCFLVPPPNQEAQEAVTRLEAQHQALVTLWHQLHVDMK (UniProt Q15149) | -0.171 | -0.237
PNO1_Q9NRX1_64_RPVFPPLCGDGLLSGKEETR (UniProt Q9NRX1) | -0.393 | -0.796
PML_P29590_389_LQDLSSCITQGK (UniProt P29590) | -0.416 | -0.317
PLXNB2_O15031_937_VTLNGVPCK (UniProt O15031) | -0.151 | 0.176

Record cards, as listed above:
PKM_P14618-2_423_CLAAALIVLTESGR (UniProt P14618) as listed: probe-labelled cysteine peptide fold change (10 µM) = 0.128; probe-labelled cysteine peptide fold change (50 µM) = 0.0978
PLEKHB2_Q96CS7_75_DCMLQIVCR (UniProt Q96CS7) as listed: probe-labelled cysteine peptide fold change (10 µM) = -0.0309; probe-labelled cysteine peptide fold change (50 µM) = -0.0334
